No constants are given. Whether binding was seen depends on the method and setting. In cells and extracts the contact can be indirect. Some results given as binding are weak or reduced against the parent protein; the word gives no strength.
What was measured:
[1] = molecular target: tropomyosin-related kinase B (TrkB), full-length human, expressed as differently tagged copies (human) (UniProt Q16620); test: co-IP; HEK293 cells transfected with TrkB-GFP and Myc-TrkB, treated with 7,8-DHF or SWNTs for 30 min; lysis in 50 mM Tris-HCl pH 7.5, 150 mM NaCl, 1 mM EDTA, 1% Triton X-100; GFP-Trap agarose beads, 4 °C, 1 h; blots with anti-Myc and anti-GFP
[2] = molecular target: tropomyosin-related kinase B (TrkB), full-length human, expressed as differently tagged copies (human) (UniProt Q16620); test: proximity ligation; HEK293 cells transfected with Myc-TrkB, treated with 7,8-DHF or bSWNTs for 30 min or left as control; fixed; two anti-Myc primary antibodies, Duolink PLA probes; confocal microscopy
[3] = molecular target: tropomyosin-related kinase B (TrkB), full-length human, expressed as differently tagged copies (human) (UniProt Q16620); test: FRET or BRET; HEK293 cells transfected with TrkB-CFP (donor) and TrkB-YFP (acceptor), treated with 7,8-DHF or bSWNTs for 30 min or left as control; confocal microscopy, pixel-by-pixel apparent FRET efficiency (Eapp)

By UniProt entry, the sequences of proteins in these tests, tags left out. Residues count along the entry.
UniProt Q16620, residues 32-822: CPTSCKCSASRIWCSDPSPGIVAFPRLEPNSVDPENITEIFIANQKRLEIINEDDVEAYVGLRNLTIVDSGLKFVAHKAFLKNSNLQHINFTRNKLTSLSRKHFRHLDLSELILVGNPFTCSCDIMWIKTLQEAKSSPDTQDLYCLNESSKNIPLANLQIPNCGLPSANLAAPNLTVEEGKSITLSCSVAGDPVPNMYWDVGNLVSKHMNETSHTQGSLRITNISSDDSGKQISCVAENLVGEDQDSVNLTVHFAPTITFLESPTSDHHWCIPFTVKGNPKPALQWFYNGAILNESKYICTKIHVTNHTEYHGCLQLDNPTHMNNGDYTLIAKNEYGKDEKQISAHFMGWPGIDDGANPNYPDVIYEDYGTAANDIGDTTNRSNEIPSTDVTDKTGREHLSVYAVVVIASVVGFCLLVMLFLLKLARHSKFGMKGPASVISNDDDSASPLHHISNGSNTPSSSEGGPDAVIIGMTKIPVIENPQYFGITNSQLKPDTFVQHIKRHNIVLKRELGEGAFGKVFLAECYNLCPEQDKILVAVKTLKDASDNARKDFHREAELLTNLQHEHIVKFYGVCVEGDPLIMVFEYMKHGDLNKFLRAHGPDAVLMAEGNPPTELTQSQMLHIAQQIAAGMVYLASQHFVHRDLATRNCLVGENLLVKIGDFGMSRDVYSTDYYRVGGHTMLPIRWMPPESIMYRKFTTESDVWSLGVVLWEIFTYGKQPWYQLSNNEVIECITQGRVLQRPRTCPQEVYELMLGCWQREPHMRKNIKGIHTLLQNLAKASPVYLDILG

binding [1]: binds
binding [2]: binds
binding [3]: binds
Substance: tropomyosin-related kinase B (TrkB), full-length human, expressed as differently tagged copies (from UniProt Q16620 32-822) (receptor)
